Measurements as given in publication PMC3315481, “Phosphorylation of the Drosophila melanogaster RNA–Binding Protein HOW by MAPK/ERK Enhances Its Dimerization and Activity” (PLoS Genetics, 2012).
Results are given in words; binding and its absence hold for the method and conditions named. Binding seen in cells or lysates may run through a third protein. Some binding calls cover weakened binding; strength is not graded here.

Target: Held Out Wings, long isoform, wild type (HOW(L)^WT) (Drosophila melanogaster) (UniProt O01367)
Assay: co-IP; S2R+ cells co-transfected with GFP-fused and HA-tagged HOW(L) variants (or gfp with how(l)^WT-HA); lysis in 1% NP40 buffer (50 mM Tris pH 7.5, 100 mM NaCl); IP with mouse anti-GFP on protein A/G beads 1-2 h at 4°C; Western blot with anti-HOW; co-precipitated HA protein normalised to its crude level and to the precipitated GFP protein

- binding: binds
B1: Held Out Wings, long isoform, wild type (HOW(L)^WT) (protein, UniProt O01367 1-405)
chain: MSVCESKAVVQQQLQQHLQQQAAAAVVAVAQQQQAQAQAQAQAQAQQQQQAPQVVVPMTPQHLTPQQQQQSTQSIADYLAQLLKDRKQLAAFPNVFTHVERLLDEEIARVRASLFQINGVKKEPLTLPEPEGSVVTMNEKVYVPVREHPDFNFVGRILGPRGMTAKQLEQETGCKIMVRGKGSMRDKKKEDANRGKPNWEHLSDDLHVLITVEDTENRATVKLAQAVAEVQKLLVPQAEGEDELKKRQLMELAIINGTYRDTTAKSVAVCDEEWRRLVAASDSRLLTSTGLPGLAAQIRAPAAAPLGAPLILNPRMTVPTTAASILSAQAAPTAAFDQTGHGMIFAPYDYANYAALAGNPLLTEYADHSVGAIKQQRRLATNREHPYQRATVGVPAKPAGFIEIQ
modifications: phosphorylated at least on one TP site (T59, T64) in unstimulated S2R+ cells
